One sequence from publication PMC5382271, “The conserved protein Seb1 drives transcription termination by binding RNA polymerase II and nascent RNA” (Nature Communications, 2017) can be followed below.

Protein sequences can lack the tags named with them.

The target in this series is T1, SUMO-RRM F445A (Schizosaccharomyces pombe) (UniProt Q9UTE3).
T1 sequence (looked up): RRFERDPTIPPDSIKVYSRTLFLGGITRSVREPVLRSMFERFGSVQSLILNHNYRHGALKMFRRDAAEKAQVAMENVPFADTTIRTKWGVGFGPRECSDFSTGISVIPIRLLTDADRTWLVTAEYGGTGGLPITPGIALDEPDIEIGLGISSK
Nature of the series: fluorescence anisotropy. The conditions noted are these: 25 mM Tris-HCl pH 8.0, 100 mM NaCl, 2 mM MgCl2, 1 mM DTT, 16.7% glycerol, 0.1% IGEPAL, 0.1 mg/ml tRNA, 2.5% RNasin, 25 C, 40 nM FAM-RNA; recombinant protein; residues 388-540; protein details: N-terminal His6-SUMO; label: 5'-FAM (printed FAM-AUUAGUAAAA). Background: Polarisation of emitted light reports the rotation of a fluorescent probe.

AUUAGUAAAA [FAM-AUUAGUAAAA RNA]: the Kd (as a rule, the equilibrium constant for the complex coming apart) was greater than 1000 µM.
